Experimental data: patent publication US20220213467A1
No constants are given. Whether binding was seen depends on the method and setting. Some entries that bind do so weakly or less than the wild type. Tags and fused reporters may be left off the sequences shown.

Experiments:
[1] = target: T1, gp11 fused to an HA peptide (gp11-HA), bacteriophage T4 gene product 11 (bacteriophage T4) (UniProt P10929); assay: on-chip expression of gp10, capture on gp11-HA traps; free traps post-stained with labeled gp10
T1 sequence: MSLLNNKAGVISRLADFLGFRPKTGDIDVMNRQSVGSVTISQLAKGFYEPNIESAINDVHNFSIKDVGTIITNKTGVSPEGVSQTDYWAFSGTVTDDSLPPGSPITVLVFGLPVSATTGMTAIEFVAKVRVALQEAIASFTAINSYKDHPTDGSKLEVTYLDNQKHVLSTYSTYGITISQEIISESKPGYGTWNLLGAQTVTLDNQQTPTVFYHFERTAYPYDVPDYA

[2] = target: T1, gp11 fused to an HA peptide (gp11-HA), bacteriophage T4 gene product 11 (bacteriophage T4); assay: on-chip gene-10 titration, post-staining
[3] = target: T1, gp11 fused to an HA peptide (gp11-HA), bacteriophage T4 gene product 11 (bacteriophage T4); assay: on-chip expression of gp10, capture on pre-synthesized gp11-HA traps; post-stained with labeled gp10

Measured: binding

B1: gp10, bacteriophage T4 gene product 10 (protein)
chain: MKQNINIGNVVDDGTGDYLRKGGIKINENFDELYYELGDGDVPYSAGAWKTYNASSGQTLTAEWGKSYAINTSSGRVTINLPKGTVNDYNKVIRARDVFATWNVNPVTLVAASGDTIKGSAVPVEINVRFSDLELVYCAPGRWEYVKNKQIDKITSSDISNVARKEFLVEVQGQTDFLDVFRGTSYNVNNIRVKHRGNELYYGDVFSENSDFGSPGENEGELVPLDGFNIRLRQPCNIGDTVQIETFMDGVSQWRSSYTRRQIRLLDSKLTSKTSLEGSIYVTDLSTMKSIPFSAFGLIPGEPINPNSLEVRFNGILQELAGTVGMPLFHCVGADSDDEVECSVLGGTWEQSHTDYSVETDENGIPEILHFDSVFEHGDIINITWFNNDLGTLLTKDEIIDETDNLYVSQGPGVDISGDVNLTDFDKIGWPNVEAVQSYQRAFNAVSNIFDTIYPIGTIYENAVNPNNPVTYMGFGSWKLFGQGKVLVGWNEDISDPNFALNNNDLDSGGNPSHTAGGTGGSTSVTLENANLPATETDEEVLIVDENGSVIVGGCQYDPDESGPIYTKYREAKASTNSTHTPPTSITNIQPYITVYRWIRIA
binds: [1] | [2] | [3]
